Here are results for one molecule from publication doi:10.1101/2020.05.13.093252.

Amino acid sequences for entries named in this document (tags omitted). Residues count along the entry.
UniProt P21803, residues 22-821: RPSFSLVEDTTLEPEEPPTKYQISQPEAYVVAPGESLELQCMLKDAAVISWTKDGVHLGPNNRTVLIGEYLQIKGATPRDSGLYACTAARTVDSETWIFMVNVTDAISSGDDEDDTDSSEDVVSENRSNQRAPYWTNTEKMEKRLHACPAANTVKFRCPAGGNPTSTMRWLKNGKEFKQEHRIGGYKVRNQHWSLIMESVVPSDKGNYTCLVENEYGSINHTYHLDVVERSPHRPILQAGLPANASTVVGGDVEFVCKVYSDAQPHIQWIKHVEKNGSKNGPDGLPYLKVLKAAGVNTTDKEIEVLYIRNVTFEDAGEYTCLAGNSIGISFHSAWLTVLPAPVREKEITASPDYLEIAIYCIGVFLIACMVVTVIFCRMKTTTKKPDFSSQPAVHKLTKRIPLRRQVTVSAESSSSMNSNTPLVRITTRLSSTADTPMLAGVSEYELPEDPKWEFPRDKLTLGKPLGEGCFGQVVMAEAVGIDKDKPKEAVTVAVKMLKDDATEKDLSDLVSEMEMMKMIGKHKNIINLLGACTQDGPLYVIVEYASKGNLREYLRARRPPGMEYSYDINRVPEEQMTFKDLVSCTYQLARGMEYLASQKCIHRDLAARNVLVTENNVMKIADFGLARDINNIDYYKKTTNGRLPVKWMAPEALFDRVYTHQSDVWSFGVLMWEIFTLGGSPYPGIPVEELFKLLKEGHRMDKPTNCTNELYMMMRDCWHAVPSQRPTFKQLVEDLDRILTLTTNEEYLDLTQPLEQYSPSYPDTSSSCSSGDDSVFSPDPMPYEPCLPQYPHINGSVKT

These are yes or no findings as the source states them, for the method shown. Binding seen in cells or lysates may run through a third protein. Some results given as binding are weak or reduced against the parent protein; the word gives no strength.

This assay concerns the target FGFR2^WT-Flag3x (mouse FGFR2 isoform c, wild type, triple Flag tag) (mouse) (UniProt P21803). Put plainly: co-IP.

B1: FRS2 (protein, UniProt Q8C180 1-508)
chain: MGSCCSCPDKDTVPDNHRNKFKVINVDDDGNELGSGVMELTDTELILYTRKRDSVKWHYLCLRRYGYDSNLFSFESGRRCQTGQGIFAFKCARAEELFNMLQEIMQNNSINVVEEPVVERSSHQTELEVPRTPRTPTTPGLGAQNLPNGYPRYPSFGDASSHPSSRHPSVGSARLPSVGEESTHPLLVAEEQVHTYVNTTGVQEERKNRASVHVPPEARVSNAESNTPKEEPSNPEDRDPQVLLKPEGVRFVLGPTPVQKQLMEKEKLEQLGKDPVSGSGAGNTEWDTGYDSDERRDVPPVNKLVYENINGLSIPSASGVRRGRLTSTSTSDTQNINNSAQRRPALLNYENLPSLPPVWEARKLSRDEDDNLGPKTPSLNGYHNNLDPMHNYVNTENVTVPASAHKIDYSKRRDCTPTVFNFDIRRPSLEHRQLNYIQVDLEGGSDSDNPQTPKTPTTPLPQTPTRRTELYAVIDIERTAAMSNLQKALPRDDGTSRKTRHNSTDLPM
With B1, the binding result is given as “binds”.
